Data published in PubChem BioAssay AID445 (National Center for Advancing Translational Sciences (NCATS), 2006).
The other results are listed elsewhere or left out. Further columns of the screen follow, without active or inactive calls. The list favours compounds with an active or inconclusive main result. Potencies come from curve fits of mixed quality, noted in brackets.

Test: IkB Signaling
Details: ABC-DLBCL IkBa-CBG/CBR dual luciferase ratio (green luciferase fused to IkBa over red control in OCI-Ly3 lymphoma cells), 4 h
How it was run: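 Luminescence ratio of IκBα-fused green versus native red beetle luciferase in OCI-Ly3 cells, 4 h post-doxycycline with compound; red signal alone, scaled from basal (0%) to zero light (-100%), flagged nonspecific or cytotoxic effects.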

[1] = measured here: control luc red channel unless noted
[2] = measured here: IkB-luc green channel
[3] = measured here: control luc red channel

CCOc1ccc(CNC(=O)Cn2c(=O)c3cccn3c3ccccc32)cc1
AC50 [1]: 15.8 µM [falling, partial curve]

Cc1nnc(N2CCCC(C(=O)NCCc3ccccc3)C2)c2nn(-c3ccccc3)c(C)c12 (configuration not stated)
AC50 [1]: 25.1 µM [falling, single point]

Cc1ccn2cc(-c3ccc(C)c(NS(=O)(=O)c4ccc(Cl)cc4)c3)nc2c1
AC50 [1]: 20 µM [falling, partial curve]

Cc1cc(C)c(NC(=O)Cn2c(=O)n(Cc3ccc(C(=O)NCc4ccco4)cc3)c(=O)c3sccc32)c(C)c1
AC50 [2]: 15.8 µM [rising, partial curve] | AC50 [3]: 39.8 µM [rising, single point]

COC(=O)c1cc2oc3ccccc3c2n1CC(=O)Nc1ccc(C)cc1C
AC50 [1]: 2 µM [rising, full curve]

CN(C)CCNC(=O)c1ccc2c(c1)N(Cc1c(F)cccc1Cl)C(=O)c1ccccc1S2
AC50 [1]: 10 µM [falling, partial curve]

CCOC(=O)Cn1c(=O)oc2cc(S(=O)(=O)N3CCN(c4cc(C)ccc4C)CC3)ccc21
AC50 [1]: 12.6 µM [falling, partial curve]

CCOC(=O)c1ccc(NC(=O)CSc2cn(CC(=O)N3CCCC3)c3ccccc23)cc1
AC50 [1]: 25.1 µM [falling, single point]

COC(=O)c1ccc2c(c1)N(CC(=O)Nc1ccc(OC)c(Cl)c1)C(=O)c1ccccc1S2
AC50 [1]: 3.16 µM [falling, full curve]

Cc1ccc(-n2nc3c(N4CCCC(C(=O)NCc5ccc(Cl)cc5)C4)nnc(C)c3c2C)cc1 (configuration not stated)
AC50 [1]: 25.1 µM [falling, partial curve]

O=C(CCS(=O)(=O)c1nc(-c2cccs2)cc(C(F)(F)F)n1)Nc1cc(Br)ccc1O
AC50 [1]: 3.16 µM [falling, full curve]

O=C(CSc1nnc(-c2ccc(Br)cc2)o1)Nc1cccc2ccccc12
AC50 [1]: 0.0794 µM [falling, full curve]

Brc1ccccc1Cn1c(-c2cncs2)nc2ccccc21
AC50 [1]: 25.1 µM [falling, single point]

N#Cc1nc(COc2cccc(Cl)c2)oc1NCCc1ccccc1
AC50 [1]: 31.6 µM [falling, single point]

CC(C)c1ccc(NC(=O)CSc2nc(=O)n(Cc3ccccn3)c3c2CCC3)cc1
AC50 [1]: 39.8 µM [falling, single point]

CCOc1ccccc1C(=O)N(Cc1cc(OC)c(OC)c(OC)c1)c1ccccn1
AC50 [1]: 39.8 µM [falling, single point]

Cc1cccc(N2CCN(C(=O)c3ccc(CS(=O)(=O)c4ccccc4C)o3)CC2C)c1 (configuration not stated)
AC50 [1]: 20 µM [falling, partial curve]

Cc1ccc(Nc2sc(C(=O)c3ccccc3)c(N)c2C(=O)Nc2ccc(Cl)cc2)cc1
AC50 [1]: 0.398 µM [falling, partial curve]

COc1ccc(-c2cn3nc(N4CCCC(C(=O)Nc5cccc(OC)c5)C4)sc3n2)cc1 (configuration not stated)
AC50 [1]: 10 µM [falling, partial curve]

CCOCCCNC(=O)c1cc(Sc2cccc(Cl)c2)nc2ccccc12
AC50 [1]: 39.8 µM [falling, single point]

COc1cccc(C(=O)N2c3ccc(C)cc3C(C)(c3ccccc3)CC2(C)C)c1 (configuration not stated)
AC50 [1]: 7.94 µM [falling, partial curve]

Cc1ccccc1C(=O)Nc1sc2c(c1C(=O)N1CCCCC1)CCC(C)C2 (configuration not stated)
AC50 [1]: 25.1 µM [falling, partial curve]

O=C(CCN1C(=O)c2ccccc2Sc2ncccc21)Nc1ccc(F)cc1F
AC50 [1]: 1 µM [rising, full curve]

O=C(NCc1cccnc1)C(=O)NCC(c1cccnc1)N1CCN(c2ccc(F)cc2)CC1 (configuration not stated)
AC50 [1]: 10 µM [falling, partial curve]

CCOC(=O)N1CCN(c2cc(NCCC(=O)O)c3c4c(onc24)-c2ccccc2C3=O)CC1
AC50 [1]: 10 µM [falling, partial curve]

CCCCN1C(=O)c2[nH]nc(-c3ccccc3O)c2C1c1ccc(OCc2ccccc2)cc1 (configuration not stated)
AC50 [1]: 39.8 µM [falling, single point]

O=C(c1ccco1)N(Cc1cc2ccccc2[nH]c1=O)C1CCCCC1
AC50 [1]: 2.51 µM [falling, full curve]

Cc1ccc(S(=O)(=O)N2CCCc3cc(NS(=O)(=O)c4cccc(Cl)c4)ccc32)cc1
AC50 [1]: 31.6 µM [falling, partial curve]

COc1ccccc1NC(=O)CSc1nnc(NC(=O)Nc2ccc(C)cc2)s1
AC50 [1]: 15.8 µM [falling, partial curve]

COc1ccc2cc(CN(Cc3ccco3)Cc3nnnn3C3CCCCC3)c(=O)[nH]c2c1
AC50 [1]: 25.1 µM [falling, partial curve]

Cc1cccc(NC(=O)c2cc3n(n2)C(C(F)(F)F)CC(c2ccc4c(c2)OCO4)N3)c1 (configuration not stated)
AC50 [1]: 10 µM [falling, partial curve]

Nc1sc2c(c1C(=O)NC1CCS(=O)(=O)C1)CCCC2 (configuration not stated)
AC50 [1]: 12.6 µM [falling, partial curve]

Cc1ccc(C(=O)c2c(N)c(C(=O)Nc3ccccc3Cl)c3ccccn23)cc1
AC50 [1]: 25.1 µM [falling, single point]

Cc1ccc(CCNC(=O)c2ccc3c(c2)nc2n3CCCCC2)cc1
AC50 [1]: 15.8 µM [falling, single point]

COc1cccc(NC(=O)c2ccc(CN3CCOCC3)cc2)c1
AC50 [1]: 31.6 µM [falling, partial curve]

Cc1sc2ncn(CC(=O)Nc3cccc(C(F)(F)F)c3)c(=O)c2c1S(=O)(=O)N1CCN(C)CC1
AC50 [1]: 1 µM [falling, partial curve]

CC1=C(C(=O)Nc2ccc(C)cc2C)C(c2ccc([N+](=O)[O-])cc2)n2ncc(C(=O)Nc3ccc(F)cc3)c2N1 (configuration not stated)
AC50 [1]: 10 µM [falling, partial curve]

Cc1ccccc1Cc1c(C)nc2nc(SCC(=O)N(C)c3ccccc3)nn2c1C
AC50 [1]: 31.6 µM [falling, single point]

Cc1c(C(=O)N2CCC(C)CC2)c(S(=O)(=O)NCc2ccc(Cl)cc2)c(C)n1C
AC50 [1]: 3.98 µM [falling, single point]

CN(c1ccc(F)cc1)S(=O)(=O)N1CCCC(C(=O)NCc2cccc(Br)c2)C1 (configuration not stated)
AC50 [1]: 25.1 µM [falling, partial curve]

Cc1ccsc1C(=O)OCC(=O)c1cc(C)n(CC2CCCO2)c1C (configuration not stated)
AC50 [1]: 25.1 µM [falling, single point]

CCN(CC)c1ccc2cc(-c3nc(-c4cccs4)no3)c(=O)oc2c1
AC50 [1]: 0.158 µM [falling, full curve]

COCCCNC(=O)CSc1nc2cc3c(cc2c(=O)n1CCCCCC(=O)NCc1ccc(OC)cc1)OCO3
AC50 [1]: 1.26 µM [rising, full curve]

Cc1ccc(NC(=O)c2cnc(SCC(=O)N3CCOCC3)n(C)c2=O)cc1C
AC50 [2]: 39.8 µM [rising, single point] | AC50 [3]: 7.94 µM [falling, single point]

CC1CCN(C(=O)c2ccc3c(c2)N(Cc2ccccc2)C(=O)c2ccccc2S3(=O)=O)CC1
AC50 [1]: 39.8 µM [falling, single point]

CCCc1cc(-c2n[nH]c(C)c2-c2ccc(C(=O)OCC)o2)c(O)cc1O
AC50 [1]: 25.1 µM [falling, partial curve]

COc1ccccc1-c1noc(-c2ccc(NCc3ccco3)c([N+](=O)[O-])c2)n1
AC50 [1]: 0.316 µM [rising, full curve]

CCn1c(=O)c(C(=O)Nn2c(C)nc3ccccc3c2=O)c(O)c2ccccc21
AC50 [1]: 25.1 µM [falling, partial curve]

Cc1cccc(N2CCN(C(=O)c3ccc4c(Cl)c5c(nc4c3)CCCC5)CC2C)c1 (configuration not stated)
AC50 [1]: 20 µM [falling, partial curve]

COc1ccc(NC(=O)c2cc3n(n2)C(C(F)(F)F)CC(c2ccc4c(c2)OCO4)N3)cc1OC (configuration not stated)
AC50 [1]: 12.6 µM [falling, partial curve]

CN(C(=O)CSc1nc(C2CCCC2)nc2c1c(=O)n(C)c(=O)n2C)c1ccccc1
AC50 [1]: 20 µM [falling, partial curve]

Cc1cccc(C)c1OC(=O)CSc1nnc(CNC(=O)c2ccccc2)o1
AC50 [1]: 0.316 µM [rising, full curve]

O=C(Cn1ncc2c1-c1ccccc1OC2)N1CCN(Cc2ccc3c(c2)OCO3)CC1
AC50 [1]: 12.6 µM [falling, partial curve]

COc1ccc2c(c1)c(CC(=O)Nc1ccc(C(C)=O)cc1)c(C)n2C(=O)c1ccc(Cl)cc1
AC50 [1]: 3.16 µM [falling, full curve]

COc1ccc(S(=O)(=O)NCCS(=O)(=O)N2CCN(c3ccccc3)CC2)cc1OC
AC50 [1]: 0.0631 µM [falling, full curve, poor fit]

Cc1ccc(NC(=O)c2oc3ccccc3c2NC(=O)c2ccc(F)c(F)c2)cc1
AC50 [1]: 39.8 µM [falling, single point]

CCc1cccc(CC)c1NC(=O)C(Cc1ccccc1)NS(=O)(=O)c1cccc2nsnc12 (configuration not stated)
AC50 [1]: 12.6 µM [falling, partial curve]

Cc1ccc(CNC(=O)CCCCCn2c(=O)c3sccc3n(CC(=O)Nc3ccc(C)c(F)c3)c2=O)cc1
AC50 [1]: 1.26 µM [falling, full curve, poor fit]

COc1cccc(C(=O)NC(=NCCc2c[nH]c3ccc(OC)cc23)Nc2nc(C)cc(C)n2)c1
AC50 [1]: 5.01 µM [falling, full curve]

CCN1C(C(=O)c2ccccc2)=C(OC(=O)COc2ccc(OC)cc2)c2ccccc2S1(=O)=O
AC50 [1]: 20 µM [falling, partial curve]
